Laboratory results published in article doi:10.1101/2023.10.16.555467.

The chains behind the UniProt entries cited, without tags or fusion partners.
UniProt P35465: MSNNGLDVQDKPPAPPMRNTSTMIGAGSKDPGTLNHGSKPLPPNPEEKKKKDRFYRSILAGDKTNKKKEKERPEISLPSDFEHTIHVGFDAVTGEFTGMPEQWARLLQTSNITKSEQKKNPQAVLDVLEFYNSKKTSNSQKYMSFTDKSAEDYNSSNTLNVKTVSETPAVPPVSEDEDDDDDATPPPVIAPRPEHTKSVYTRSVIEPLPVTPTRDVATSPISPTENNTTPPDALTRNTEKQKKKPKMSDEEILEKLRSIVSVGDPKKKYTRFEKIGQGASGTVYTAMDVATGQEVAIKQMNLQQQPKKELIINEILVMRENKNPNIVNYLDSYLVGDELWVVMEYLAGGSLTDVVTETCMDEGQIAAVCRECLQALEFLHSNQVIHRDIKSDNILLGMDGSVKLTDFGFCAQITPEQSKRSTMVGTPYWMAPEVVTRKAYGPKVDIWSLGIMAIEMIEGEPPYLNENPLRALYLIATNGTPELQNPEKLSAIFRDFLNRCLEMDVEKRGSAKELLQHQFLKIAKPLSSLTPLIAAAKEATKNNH
UniProt P45592: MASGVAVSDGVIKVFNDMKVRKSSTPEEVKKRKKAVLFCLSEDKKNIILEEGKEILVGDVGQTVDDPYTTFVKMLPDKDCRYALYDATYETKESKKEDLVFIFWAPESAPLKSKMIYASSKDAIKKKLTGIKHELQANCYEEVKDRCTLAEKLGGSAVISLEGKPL

Target: P21-activated kinase 1 (PAK1) (rat (endogenous in primary rat oligodendrocytes)) (UniProt P35465)
Assay: affinity purification with mass spectrometry

With cofilin-1 (from UniProt P45592 1-166) the binding was “binds”.

These are yes or no findings as the source states them, for the method shown. Binding seen in cells or lysates may run through a third protein. A yes stands for co-enrichment or nearness to the bait. Other partners may have been found.
